pKd: −log10 of the molar value. Where two headings read alike, the source gives them in different places. Part of at least one peptide drawing is inferred or uncertain, most often the ends. At least one compound was matched to its structure with a doubt left.
Target: T1, human serum albumin (HSA) (Homo sapiens, UniProt P02768)
T1 construct: purchased ICN
Assay: Fluorescence anisotropy, direct binding of fluorescein-labeled peptide to HSA
Experimental: Affinity determinations were made by first labeling polypeptides on the C-terminal end with NHS-fluorescein. Fluorescence anisotropy measurements were performed in 384-well microplates in a volume of 10 μl in binding buffer using a Tecan Polarion fluorescence polarization plate reader. The concentration of fluorescein labeled peptide was held constant (20 nM), and the concentration of HSA was varied. For pH 6.2, 7.1, and 7.4 binding conditions, a 3 mM phosphate, 0.01% TWEEN-20® buffer was used. For pH 9.1 binding conditions, a 3 mM sodium bicarbonate buffer, 0.01% TWEEN-20® nonionic detergent buffer was used. Once NaCi was added to any of these buffers, their pH was adjusted again to achieve the original pH. The binding mixtures were equilibrated for 10 minutes in the microplate at […] prior to performing the measurement. The observed change in anisotropy was fit to the equation below via nonlinear regression to obtain the apparent KD. This equation assumes that the peptide and HSA form a reversible complex with 1:1 stoichiometry.

Amino acid sequences for entries named in this document (tags omitted). Residues count along the entry.
UniProt P02768, 25-609: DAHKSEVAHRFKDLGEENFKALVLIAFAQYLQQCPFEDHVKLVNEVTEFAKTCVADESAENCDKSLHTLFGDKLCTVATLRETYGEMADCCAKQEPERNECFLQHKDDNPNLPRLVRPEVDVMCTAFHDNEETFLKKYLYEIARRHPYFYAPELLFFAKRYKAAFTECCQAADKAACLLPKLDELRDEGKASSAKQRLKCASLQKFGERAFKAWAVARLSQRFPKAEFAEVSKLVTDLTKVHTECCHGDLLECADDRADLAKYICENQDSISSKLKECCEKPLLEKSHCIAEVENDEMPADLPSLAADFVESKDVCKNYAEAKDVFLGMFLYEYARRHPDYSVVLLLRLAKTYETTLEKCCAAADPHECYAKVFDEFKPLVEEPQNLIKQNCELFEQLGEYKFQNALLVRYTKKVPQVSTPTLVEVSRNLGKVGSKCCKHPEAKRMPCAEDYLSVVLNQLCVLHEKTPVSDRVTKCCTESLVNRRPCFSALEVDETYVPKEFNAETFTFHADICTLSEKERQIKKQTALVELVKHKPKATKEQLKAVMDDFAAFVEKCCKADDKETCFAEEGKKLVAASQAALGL

[1] = read-out: KD (PBS), apparent KD for HSA in PBS

Ac-AGYQFCTWDPIFCGWHGTGGGK-NH2 (cysteine pairing not given here) [DX-1179]
pKd [1]: 3.73

Ac-AGWTTCHIYDWFCSSSGTGGGK-NH2 (cysteine pairing not given here) [DX-1175]
pKd [1]: 4.52

Ac-AEGTGDFWFCDRIAWYPQHLCGGGK-NH2 (cysteine pairing not given here) [SEQ ID NO: 42]
pKd (read-out: KD for Truncated Peptides of DX-236, buffer not stated in Table 2): 5.05
